This note sets out measurements from paper PMC7738880, “Identification of novel CD44v6-binding peptides that block CD44v6 and deliver a pro-apoptotic peptide to tumors to inhibit tumor growth and metastasis in mice” (Theranostics, 2021).

By UniProt entry, the sequences of proteins in these tests, tags left out. Residues count along the entry.
UniProt P08581, residues 25-1390: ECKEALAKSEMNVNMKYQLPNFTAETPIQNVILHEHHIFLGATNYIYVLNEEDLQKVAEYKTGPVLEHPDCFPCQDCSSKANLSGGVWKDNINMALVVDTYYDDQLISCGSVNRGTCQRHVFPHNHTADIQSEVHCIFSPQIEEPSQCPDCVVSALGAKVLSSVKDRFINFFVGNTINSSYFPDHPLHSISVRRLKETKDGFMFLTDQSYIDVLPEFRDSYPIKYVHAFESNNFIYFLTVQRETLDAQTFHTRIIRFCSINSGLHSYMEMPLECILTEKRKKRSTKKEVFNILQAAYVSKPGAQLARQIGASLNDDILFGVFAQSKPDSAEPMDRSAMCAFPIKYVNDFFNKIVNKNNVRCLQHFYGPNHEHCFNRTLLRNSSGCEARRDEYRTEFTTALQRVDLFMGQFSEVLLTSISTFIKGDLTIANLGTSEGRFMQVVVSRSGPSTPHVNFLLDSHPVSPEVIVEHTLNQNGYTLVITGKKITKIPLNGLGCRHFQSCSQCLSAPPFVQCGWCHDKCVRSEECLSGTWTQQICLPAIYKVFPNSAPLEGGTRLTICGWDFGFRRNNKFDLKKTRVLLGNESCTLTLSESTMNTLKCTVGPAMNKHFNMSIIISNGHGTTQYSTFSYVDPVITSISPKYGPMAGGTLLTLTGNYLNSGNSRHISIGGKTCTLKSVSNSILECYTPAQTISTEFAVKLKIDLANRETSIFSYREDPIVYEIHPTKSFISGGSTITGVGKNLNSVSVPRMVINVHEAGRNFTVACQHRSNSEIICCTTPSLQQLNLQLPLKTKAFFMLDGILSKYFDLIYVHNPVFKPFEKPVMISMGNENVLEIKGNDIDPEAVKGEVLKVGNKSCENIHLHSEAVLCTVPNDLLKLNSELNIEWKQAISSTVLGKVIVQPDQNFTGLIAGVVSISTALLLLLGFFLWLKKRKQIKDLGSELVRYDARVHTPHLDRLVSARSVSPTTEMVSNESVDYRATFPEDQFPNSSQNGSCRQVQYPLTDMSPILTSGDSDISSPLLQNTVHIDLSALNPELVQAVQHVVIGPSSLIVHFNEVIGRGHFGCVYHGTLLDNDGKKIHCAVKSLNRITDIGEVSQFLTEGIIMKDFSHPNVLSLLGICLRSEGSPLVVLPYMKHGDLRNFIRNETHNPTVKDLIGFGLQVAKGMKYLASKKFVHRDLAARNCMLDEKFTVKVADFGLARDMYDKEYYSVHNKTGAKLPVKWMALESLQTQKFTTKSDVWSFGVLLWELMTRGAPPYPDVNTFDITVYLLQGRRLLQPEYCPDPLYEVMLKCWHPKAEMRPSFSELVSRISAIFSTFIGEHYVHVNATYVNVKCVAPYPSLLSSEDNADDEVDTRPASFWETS

Assay [1] deals with T1, biotin-labeled NEW (…).
T1 sequence (peptide, biotin at the amino-terminus): CNEWQLKSC
Nature of the assay: pull-down; biotinylated peptide (25 µM) on streptavidin magnetic beads incubated with MDA-MB231 cell lysate at room temperature 30-60 min; eluted with 2 mM D-biotin; immunoblot with anti-CD44v6, anti-c-Met and anti-CD44 antibodies; only the target purified. Background: In western blotting, separated proteins are transferred to a membrane and probed.

Assay [2] has as its target T2, biotin-labeled NLN (…).
T2 sequence (peptide, biotin at the amino-terminus): CNLNTIDTC
The assay is described as above.

Results are given in words; binding and its absence hold for the method and conditions named. In cells and extracts the contact can be indirect. Some binding calls cover weakened binding; strength is not graded here.

On to “c-Met receptor tyrosine kinase, endogenous in MDA-MB231 cells (from UniProt P08581 25-1390)”, for which the binding entry in assay [1] was “no binding”; in assay [2], “binds”.
